Measurements taken from patent US20050118646A1.
No constants are given. Whether binding was seen depends on the method and setting. Some entries that bind do so weakly or less than the wild type. Where a sequence is shown, tags or fusion partners need not be part of it. Each block holds one binder with its values, some of them ahead of it.

Chains of the proteins cited; added tags and fusions are not shown. Residues count along the entry.
UniProt P02701, residues 25-152: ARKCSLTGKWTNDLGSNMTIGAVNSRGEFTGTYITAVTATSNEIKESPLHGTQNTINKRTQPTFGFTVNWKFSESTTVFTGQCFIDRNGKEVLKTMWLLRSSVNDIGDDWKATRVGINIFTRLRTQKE

Target: Neutravidin (UltraLink neutravidin beads, Pierce; neutravidin protein) (UniProt P02701)
Assay: Western blot of samples before and after biotinylation and of the supernatant after binding to UltraLink neutravidin beads

binding: binds
B1: E25-Tag-only (AviTag-(G4S)2-TEV cleavage site-His6-PrC, no bait), biotinylated (peptide)
chain: MSGLNDIFEAQKIEWHEGAISGGGGSGGGGSGGGGSAENLYFQGSSAHHHHHHGSEDQVDPRLIDGK
modifications: biotin attached to the AviTag (BirA recognition sequence) by BirA in vitro

binding: binds
B2: E24-Tag-only (AviTag-TEV cleavage site-His6-PrC, no bait), biotinylated (peptide)
chain: MSGLNDIFEAQKIEWHEGAISAENLYFQGSSAHHHHHHGSEDQVDPRLIDGK
modifications: biotin attached to the AviTag (BirA recognition sequence) by BirA in vitro
